From patent US20170319690A1 (AGENCY FOR SCIENCE TECHNOLOGY AND RESEARCH, published 2017)
These are yes or no findings as the source states them, for the method shown. Some binding calls cover weakened binding; strength is not graded here.

Sequences of proteins named here, by UniProt entry; tags and fusion partners are left off. A change or cut given only in a name is not applied to a line headed by its entry.
UniProt Q9NZQ7: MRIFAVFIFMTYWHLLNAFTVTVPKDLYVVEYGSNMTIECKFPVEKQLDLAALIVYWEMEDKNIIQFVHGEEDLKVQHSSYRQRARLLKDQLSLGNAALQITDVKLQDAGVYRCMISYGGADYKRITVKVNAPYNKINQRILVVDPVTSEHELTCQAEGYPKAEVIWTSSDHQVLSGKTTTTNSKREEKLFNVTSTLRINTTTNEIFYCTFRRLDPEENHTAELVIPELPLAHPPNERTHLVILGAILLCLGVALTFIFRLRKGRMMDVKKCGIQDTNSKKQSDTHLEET
UniProt Q9EP73: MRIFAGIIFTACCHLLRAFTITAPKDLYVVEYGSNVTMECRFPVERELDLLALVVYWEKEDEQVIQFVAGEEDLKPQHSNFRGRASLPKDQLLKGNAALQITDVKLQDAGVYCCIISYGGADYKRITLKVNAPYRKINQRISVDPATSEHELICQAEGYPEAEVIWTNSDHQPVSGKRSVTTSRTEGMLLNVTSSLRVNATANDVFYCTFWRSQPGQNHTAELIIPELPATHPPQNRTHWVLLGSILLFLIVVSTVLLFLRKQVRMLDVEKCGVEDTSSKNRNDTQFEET

Assays:
[1] = molecular target: human PD-L1 coupled to human Fc (human) (UniProt Q9NZQ7); assay: ELISA, PD-L1-Fc coated
[2] = molecular target: murine PD-L1 coupled to human Fc (murine; human) (UniProt Q9EP73); assay: ELISA, PD-L1-Fc coated
[3] = molecular target: human PD-L1 (ELISA antigen, construct not stated) (human) (UniProt Q9NZQ7); assay: screening ELISA of Fabs
[4] = molecular target: human PD-L1 coupled to human Fc (human) (UniProt Q9NZQ7); assay: ELISA, PD-L1-Fc coated, Fab detected with anti-human Fab-HRP
[5] = molecular target: murine PD-L1 coupled to human Fc (murine; human) (UniProt Q9EP73); assay: as above
[6] = molecular target: human PD-L1 coupled to human Fc (human) (UniProt Q9NZQ7); assay: ELISA; plate coated with human PD-L1-Fc, Fab added (concentration not given), goat anti-human Fab-HRP/TMB, absorbance 450-670 nm
[7] = molecular target: murine PD-L1 coupled to human Fc (murine; human) (UniProt Q9EP73); assay: ELISA; plate coated with mouse PD-L1-Fc, Fab added (concentration not given), goat anti-human Fab-HRP/TMB, absorbance 450-670 nm
[8] = molecular target: biotinylated murine PD-L1 (murine) (UniProt Q9EP73); assay: blocking ELISA; biotinylated murine PD-L1 pre-incubated with the Fab, then added to plate-coated murine PD-1-Fc (the blocked partner); streptavidin-HRP/TMB
[9] = molecular target: T1, biotinylated human PD-L1 (human, UniProt Q9NZQ7 19-239, limits assumed, biotinylated); assay: blocking ELISA; biotinylated human PD-L1 pre-incubated with the Fab, then added to plate-coated human PD-1-Fc (the blocked partner); streptavidin-HRP/TMB
T1 construct: construct not described

[10] = molecular target: T2, human PD-L1 expressed on cells (human, UniProt Q9NZQ7 19-290); assay: flow cytometry on MDA-MB-231 cells
T2 construct: whole, on cells; also called PD-L1 transfected HEK 293 cells; HEK293-6E cells transfected with human PD-L1

[11] = molecular target: T2, human PD-L1 expressed on cells; assay: flow cytometry on MDA-MB-231 human breast cancer cells constitutively expressing PD-L1; MFI
[12] = molecular target: biotinylated murine PD-L1 (murine) (UniProt Q9EP73); assay: blocking ELISA; murine PD-L1 binding to murine PD-1 (the blocked partner) in the presence of the IgG
[13] = molecular target: T2, human PD-L1 expressed on cells; assay: flow cytometry blocking assay; antibody mixed with human PD-1-PE (the blocked partner) and added to HEK293 cells transfected with human PD-L1
Source text: Cells were washed 3 times with PBS and all data were collected on a BD FACSCanto II (BD Bioscience) and analysed on BD FACSDiva software (BD Bioscience).

[14] = molecular target: cynomolgus PD-L1 (ELISA antigen, construct not stated) (cynomolgus) (UniProt G7PSE7); assay: ELISA on different antigens
[15] = molecular target: human PD-L1 (ELISA antigen, construct not stated) (human) (UniProt Q9NZQ7); assay: ELISA on different antigens
[16] = molecular target: mouse PD-L1 (ELISA antigen, construct not stated) (mouse) (UniProt Q9EP73); assay: ELISA on different antigens
[17] = molecular target: mouse PD-L1 (ELISA antigen, construct not stated) (mouse) (UniProt Q9EP73); assay: back-reference to the earlier binding experiments
[18] = molecular target: T1, biotinylated human PD-L1; assay: ELISA, antibody coated, biotinylated human PD-L1 titrated, streptavidin-HRP
[19] = molecular target: T1, biotinylated human PD-L1; assay: avidity ELISA, biotinylated human PD-L1 on neutravidin, antibody titrated, anti-human Fc-HRP
[20] = molecular target: cynomolgus PD-L1 (ELISA antigen, construct not stated) (cynomolgus) (UniProt G7PSE7); assay: ELISA on plate-bound antigen (sheet legend: cyPD-L1-Fc); antibody concentration not given
[21] = molecular target: human PD-L1 (ELISA antigen, construct not stated) (human) (UniProt Q9NZQ7); assay: ELISA on plate-bound antigen (sheet legend: huPD-L1-Fc); antibody concentration not given
[22] = molecular target: mouse PD-L1 (ELISA antigen, construct not stated) (mouse) (UniProt Q9EP73); assay: ELISA on plate-bound antigen (sheet legend: moPD-L1-Fc); antibody concentration not given
[23] = molecular target: T1, biotinylated human PD-L1; assay: avidity ELISA; biotinylated human PD-L1 (0.2 ug/mL) captured on a neutravidin plate, IgG titrated, anti-human Fc-HRP/TMB
Procedure: Neutravidin was coated onto maxisorp plates at 2 μg/mL in coating buffer and incubated overnight at 4° C. The next day, plates were washed with wash buffer (PBS+0.05% Tween-20), and blocker with casein for 1 hour, at room temperature. Plates were then washed again using wash buffer. […] Plates were then washed again using wash buffer. The different antibodies were then added at various concentrations, and incubated for 1 hour at room temperature. Plates were then washed again using wash buffer. Anti-human Fc-HRP was then added and incubated for 1 hour at room temperature. Plates were then washed again using wash buffer. Finally, TMB was added to develop the ELISA; TMB conversion by HRP was stopped using 1M H—Cl.

[24] = molecular target: T1, biotinylated human PD-L1; assay: ELISA; antibody coated on the plate at 2 ug/mL, biotinylated human PD-L1 titrated (x axis: Human PD-L1, nM), streptavidin-HRP/TMB
Procedure: Binding was measured by ELISA. Antibodies were coated onto maxisorp plates at 2 μg/mL in coating buffer and incubated overnight at 4° C. The next day, plates were washed with wash buffer (PBS+0.05% Tween-20), and blocker with casein for 1 hour, at room temperature. Plates were then washed again using wash buffer. […] Plates were then washed again using wash buffer. […] Plates were then washed again using wash buffer. Finally, TMB was added to develop the ELISA; TMB conversion by HRP was stopped using 1M H—Cl.

[25] = molecular target: PD-L1 (blocking ELISA of Example 13) (Homo sapiens (Human)) (UniProt Q9NZQ7); assay: blocking ELISA; antibody pre-incubated with PD-L1, added to plate-coated PD-1 (the blocked partner); PD-1-bound PD-L1 detected with an antibody

Measured: binding

B1: anti-PD-L1 antibody clone H12, Fab format (Fab, V domains shown)
VH: EVQLVQSGAEVKKPGASVKVSCKASGGTFSSYAISWVRQAPGQGLEWMGRIIPILGIANYAQKFQGRVTITADKSTSTAYMELSSLRSEDTAVYYCARSGHGYSYGAFDYWGQGTL
VL: QSVLTQPPSVSGAPGQRVTISCTGSSSNIGAGYDVHWYQQLPGTAPKLLIYGNSNRPSGVPDRFSGSKSGTSASLAITGLQAEDEADYYCQSYDSSLSGSYVVFGGGTKLTVL
binds: [1] | [2] | [3] | [4] | [5] | [6] | [7] | [8] | [9]

B2: anti-PD-L1 antibody H12, IgG1 format (antibody, V domains shown)
VH: B1 VH
VL: B1 VL
notes: IgG1
binds: [10] | [11] | [12] | [13]

B3: anti-PD-L1 antibody H12 (format not stated in the example) (antibody, V domains shown)
VH: B1 VH
VL: B1 VL
binds: [14] | [15] | [16] | [17] | [18] | [19] | [20] | [21] | [22] | [23] | [24] | [25]

B4: anti-PD-L1 antibody H12, IgG4 format (antibody, V domains shown)
VH: B1 VH
VL: B1 VL
notes: IgG4
binds: [13]

B5: anti-PD-L1 antibody C4 (format not stated in the example) (antibody, V domains shown)
VH: QVQLQQSGAEVKKPGSSVKVSCKASGGTFSSYAISWVRQAPGQGLEWMGRIIPILGIANYAQKFQGRVTITADKSTSTAYMELSSLRSEDTAVYYCARGGYGGNSLYAFDIWGQGTMVTVSS
VL: QSVVTQPPSVSAAPGQKVTISCSGSSSNIGNNYVSWYQQLPGTAPKLLIYDNNERLSGIPDRFSGSKSGTSATLGISGLQTGDEADYYCGTWDSSLSVVVFGGGTKLTVL
notes: detected with anti-human Fc-HRP in the avidity ELISA, so it carried an Fc there
binds: [25]
